This is an account of results in publication doi:10.1101/2021.08.23.457352.

This assay concerns the target T1, GFP-prescission-Hse1 (yeast) (UniProt P38753).
T1 sequence: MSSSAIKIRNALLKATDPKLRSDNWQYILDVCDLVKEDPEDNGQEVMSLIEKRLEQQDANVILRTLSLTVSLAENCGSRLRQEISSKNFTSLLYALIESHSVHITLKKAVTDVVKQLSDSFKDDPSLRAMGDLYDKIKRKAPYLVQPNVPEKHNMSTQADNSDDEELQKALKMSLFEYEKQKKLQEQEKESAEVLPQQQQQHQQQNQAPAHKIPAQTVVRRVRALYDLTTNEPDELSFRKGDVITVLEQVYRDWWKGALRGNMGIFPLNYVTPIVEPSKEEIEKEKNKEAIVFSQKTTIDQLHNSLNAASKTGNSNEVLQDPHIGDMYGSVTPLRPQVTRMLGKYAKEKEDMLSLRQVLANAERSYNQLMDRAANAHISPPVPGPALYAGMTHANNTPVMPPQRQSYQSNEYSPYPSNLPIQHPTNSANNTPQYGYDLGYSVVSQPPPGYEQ
The assay is described as follows: co-purification.

No constants are given. Whether binding was seen depends on the method and setting. Some results given as binding are weak or reduced against the parent protein; the word gives no strength. Sequences can lack the tags named with a protein.

B1: Vps27 (expressed in S. cerevisiae under a GAL promoter) (protein, UniProt P40343 1-622)
chain: MSVSTPSELDALIEQATSESIPNGDLDLPIALEISDVLRSRRVNPKDSMRCIKKRILNTADNPNTQLSSWKLTNICVKNGGTPFIKEICSREFMDTMEHVILREDSNEELSELVKTILYELYVAFKNDSQLNYVAKVYDKLISRGIKFPEKLTLSNSPTAMFDSKTPADWIDSDACMICSKKFSLLNRKHHCRSCGGVFCQEHSSNSIPLPDLGIYEPVRVCDSCFEDYDLKRHDDSKKSKKHRHKRKKDRDYSTPEDEEELIRKAIELSLKESRNSASSEPIVPVVESKNEVKRQEIEEEEDPDLKAAIQESLREAEEAKLRSERQKASRQMQPQQPSPQPQPIHSVDLSDEEKDSIYMFASLVEKMKSRPLNEILEDSKLQNLAQRVFASKARLNYALNDKAQKYNTLIEMNGKISEIMNIYDRLLEQQLQSINLSQQYTLPQVPSDPYNYLTENVQNPAESYQTPPLQQLSSHQYKPQQDVSRQQSVKANSSPTTNIDHLKTIDVTPHAQQKPQSHVELAPSDPPYPKEEAEDEGTQAVQDEESSTQESRERPYPVETENGETSINKRPQGITRYDFPTVPARKFVQPESTVPLPASSSEIPIKEERPPSPQEELLIEL
Turning to B1, the binding result was “binds”.
